Measurements taken from PubChem BioAssay AID493014 (National Center for Advancing Translational Sciences (NCATS), 2011).
The other results are listed elsewhere or left out. These are further read-outs of the screen, such as a control signal, another cell line or another target. No call is given for them. The list favours compounds with an active or inconclusive main result. The note in brackets gives the kind of curve behind each potency; many fits are weak.

Assay: qHTS Assay to Find Inhibitors of Chronic Active B-Cell Receptor Signaling
Settings: ABC-DLBCL IkBa-CBG/CBR reporter, luminescence ratio (green luciferase fused to IkBa over red control in TMD8 lymphoma cells), 4 h
Procedure, shortened: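 Doxycycline induced both beetle luciferases in TMD8 lymphoma cells; IKK-driven degradation limits the IkappaBalpha-fused green signal, while red luminescence normalises for cell number and nonspecific effects. Compounds tested up to 46 uM, 4 hrs.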

[1] = measured here: CBR red luminescence, cell number
[2] = measured here: IkBa-CBG green luminescence

| Compound | AC50 [1] | AC50 [2] |
| --- | --- | --- |
| O=C(O)c1cc(NN=C2CCN(Cc3ccccc3)CC2)ccc1Cl | 11.2 µM [falling, partial curve] | – |
| O=C(CCl)Nc1ccc(S(=O)(=O)NC2=NCCCCC2)cc1 | 5.8 µM [falling, partial curve, poor fit] | – |
| O=C(Nc1nc2ccccc2[nH]1)Nc1ccccc1F | 10 µM [falling, partial curve] | – |
| CC(C)Nc1nc(Cl)nc(NNC(=O)C(C)Oc2ccccc2)n1 (configuration not stated) | 15.8 µM [falling, single point] | – |
| Cc1ccc(NC(=O)Cc2cccs2)cc1Cl | 0.501 µM [rising, full curve, poor fit] | – |
| Cc1c(C#N)c2ccccc2n1CC(=O)N1CCCc2ccccc21 | 0.731 µM [falling, full curve, poor fit] | – |
| Cc1cccc(-n2nc(C(=O)c3ccco3)cc(-c3nc4ccccc4[nH]3)c2=N)c1 | 0.731 µM [rising, full curve, poor fit] | 2.91 µM [falling, partial curve, poor fit] |
| Cc1ccc(Cl)cc1NC(=O)COC(=O)CN1C(=O)C2CCCCC2C1=O (configuration not stated) | 8.2 µM [rising, partial curve, poor fit] | – |
| CCOC(=O)/C=C/c1cnn(-c2ccccc2)c1 | 0.146 µM [rising, full curve, poor fit] | – |
| CCOc1nnc(C)c2c(C)n(-c3ccc(Cl)cc3)nc12 | 28.2 µM [rising, single point] | – |
| CCn1cc(C(=O)NCCC(=O)NCCO)c(=O)c2cc3c(cc21)OCO3 | 6.31 µM [falling, single point] | – |
| CC(C)(C)c1nnc(NC(=O)C2CCN(c3ncccn3)CC2)s1 | 6.51 µM [falling, single point] | – |
| CC1CCN(C(=O)c2ccc([N+](=O)[O-])o2)CC1 | 10 µM [rising, partial curve, poor fit] | – |
| CC1(C)Cc2c(sc(NC(=O)COc3ccc(Cl)cc3)c2C#N)C(C)(C)N1 | 31.6 µM [falling, single point] | – |
| Cn1cccc1C(NC(=O)c1ccccc1)C(Cl)(Cl)Cl (configuration not stated) | 7.94 µM [rising, partial curve, poor fit] | – |
| CCN(Cc1ccccc1)Cc1ccc(OCc2ccccc2)c(OC)c1 | 7.08 µM [rising, full curve, poor fit] | – |
| COc1ccc(C(=O)NC(=S)NNC(=O)c2ccc(NC(=O)C(C)C)cc2)cc1 | 13 µM [rising, partial curve] | – |
| Cn1c(-c2ccsc2)c(-c2cccs2)c2cc(-c3ccc4cc[nH]c4c3)ccc21 | 6.51 µM [falling, single point] | – |
| O=C(Cn1c(NCCO)nc2ccccc21)c1ccc([N+](=O)[O-])cc1 | 22.4 µM [falling, single point] | – |
| COc1ccc(-c2cn3ccc4ccccc4c3n2)cc1 | 1.84 µM [rising, full curve, poor fit] | – |
| C/C(=N\NC(=O)c1ccc(O)cc1)c1cc2ccccc2o1 | 11.2 µM [falling, partial curve, poor fit] | – |

| Compound | AC50 [1] | AC50 [2] |
| --- | --- | --- |
| COc1ccc(OC)c2[nH]c(=O)c(CCNC(=O)c3cccs3)cc12 | 1.41 µM [rising, full curve] | – |
| Cc1c(C(=O)N2CCOCC2)[nH]c2ccc(OCc3ccccc3)cc12 | 2.31 µM [rising, partial curve, poor fit] | – |
| O=C(Nc1c2c(nn1-c1ccc(Cl)cc1)CS(=O)(=O)C2)c1ccc2c(c1)OCO2 | 29.1 µM [rising, single point] | 23.1 µM [falling, single point] |
| Nc1nc(-c2cc(Cl)cc(Cl)c2OC(F)F)cs1 | 35.5 µM [rising, single point] | – |
| CCCC(=O)N1CCN(c2nc3ccc(Br)cc3s2)CC1 | 1.58 µM [rising, partial curve, poor fit] | – |
| O=C(Nc1ccncc1)c1sc2ccccc2c1Cl | 10 µM [falling, partial curve, poor fit] | – |
| CC1CCN(CCCNC(=O)c2coc3nc4ccccc4nc23)CC1 | 18.4 µM [falling, single point] | – |
| COc1ccccc1N1CCN(CC(O)c2c(C)[nH]c3ccccc23)CC1 (configuration not stated) | 7.94 µM [falling, partial curve, poor fit] | – |
| Cc1oc(-c2cccc(Cl)c2)nc1CN1CCCC(C(=O)NC(C)c2ccc3c(c2)OCCO3)C1 (configuration not stated) | 2.06 µM [rising, full curve, poor fit] | – |
| O=C(NCC1CCCO1)c1ccc2c(c1)C(=O)N(c1cccc([N+](=O)[O-])c1)C2=O (configuration not stated) | 0.355 µM [rising, partial curve, poor fit] | – |
| O=C(Nc1ncccn1)c1cccc(F)c1 | 2.82 µM [falling, single point] | – |
| CCC(=O)OCC(=O)C1(OC(=O)CC)[C@H](C)C[C@H]2[C@H]3[C@H]([C@@H](O)C[C@@]21C)[C@@]1(C)C=CC(=O)C=C1C[C@H]3Cl (some centres not stated) | 0.00517 µM [rising, full curve, poor fit] | – |
| COc1ccc(C=NNc2ccc([N+](=O)[O-])cc2S(=O)(=O)Nc2ccccc2C(=O)O)cc1OC | 29.1 µM [rising, single point] | 20.6 µM [falling, partial curve, poor fit] |
| CCOc1cc(/C=C(\C#N)C(=O)Nc2cccc(C(=O)O)c2)ccc1OCc1ccc(Br)cc1 | 11.2 µM [rising, partial curve, poor fit] | – |
| CCOC(CCNC(=O)c1cn(-c2cccc(C)n2)cn1)OCC | 8.91 µM [falling, partial curve] | – |
| COc1ccccc1NC(=O)NC(=O)c1ccccc1 | 1.58 µM [falling, full curve, poor fit] | – |
| CN1CCC(=C(c2ccc(Cl)cc2)c2ccccn2)CC1 | 11.2 µM [falling, single point] | – |
| COc1cccc(/C=N/Nc2ccnc(=O)[nH]2)c1O | 11.2 µM [falling, partial curve] | – |
| O=C(CSC(=S)N1CCCC1)N1CCN(S(=O)(=O)c2ccccc2F)CC1 | 1.84 µM [rising, full curve] | – |
| CCOC(=O)N1CCN(C(=O)c2cc(COc3ccc4ncccc4c3)on2)CC1 | 22.4 µM [falling, single point] | – |
| O=C(CSC1=NS(=O)(=O)c2ccccc2N1)Nc1ccc(F)cc1 | 29.1 µM [falling, single point] | – |

Three compounds out of the list, ordered by formula weight, falling:

| Compound | AC50 [1] | AC50 [2] |
| --- | --- | --- |
| O=C(Nc1c2c(nn1-c1ccc(Cl)cc1)CS(=O)(=O)C2)c1ccc2c(c1)OCO2 | 29.1 µM [rising, single point] | 23.1 µM [falling, single point] |
| COc1ccccc1N1CCN(CC(O)c2c(C)[nH]c3ccccc23)CC1 (configuration not stated) | 7.94 µM [falling, partial curve, poor fit] | – |
| COc1cccc(/C=N/Nc2ccnc(=O)[nH]2)c1O | 11.2 µM [falling, partial curve] | – |

(cont.)

| Compound | AC50 [1] | AC50 [2] |
| --- | --- | --- |
| CC12CCC(=O)N1C(C(=O)Nc1nc3ccc(Cl)cc3s1)CS2 (configuration not stated) | 5.17 µM [falling, partial curve] | 3.26 µM [rising, partial curve, poor fit] |
| Cc1cc(NC(=O)CCCC(=O)N(CC(=O)NCCc2ccccc2)Cc2ccc(F)cc2)no1 | 35.5 µM [rising, partial curve, poor fit] | – |
| CSc1cc(-c2ccc(Cl)cc2)[nH]c(=O)c1C#N | 0.316 µM [rising, full curve, poor fit] | – |
| C/C(=N\Nc1ccc(S(=O)(=O)N2CCCCC2)cn1)c1cccc(Br)c1 | 0.184 µM [rising, full curve, poor fit] | – |
| CNc1nc(-c2ccc3c(c2)CCN3C(=O)c2ccc(F)cc2)cs1 | 12.6 µM [falling, single point] | – |
| Cc1occc1C(=O)N/N=C/C(Br)=C/c1ccccc1 | 15.8 µM [falling, partial curve] | 15.8 µM [falling, single point] |
| COc1ccc(CC(=O)N2CC(C)CC(C)C2)cc1OC (configuration not stated) | 20.6 µM [rising, single point] | – |
| CCn1cc(C(=O)O)c(=O)c2cc(F)c(N/N=C/c3ccccc3)cc21 | 4.11 µM [falling, partial curve] | – |
| Cc1ccc(NC(=O)C(c2ccccc2)N2CCN(CC(=O)N3CCOCC3)CC2)cc1Cl (configuration not stated) | 1.46 µM [rising, full curve] | – |
| CN(CC(=O)NCc1ccco1)C(=O)C1CC(=O)N(c2ccc3c(c2)OCCO3)C1 (configuration not stated) | 9.2 µM [rising, partial curve, poor fit] | – |
| O=C(CNCC1CCCCC1)Nc1ccc(OC(F)(F)F)cc1 | 7.08 µM [rising, full curve] | – |
| O=C1Nc2ccc(Cl)cc2C(=O)C1(F)c1ccccc1 (configuration not stated) | 35.5 µM [falling, single point] | – |
| CCOC(=O)c1c(CSC(=N)N)n(-c2ccc(Br)cc2)c2cc(Br)c(OC(C)=O)cc12 | 20.6 µM [rising, single point] | – |
| Cc1ccc(-c2nnc3cccc(Cl)n23)cc1 | 35.5 µM [rising, single point] | – |
| CC(C)C(C)NC(=O)COn1nnc2ccc(S(=O)(=O)N3CCOCC3)cc21 (configuration not stated) | 6.51 µM [falling, single point] | – |
| COc1ccc(-c2csc(NC(=S)NC(=O)/C=C/c3ccc(C(C)C)cc3)n2)cc1OC | 0.126 µM [rising, full curve, poor fit] | – |
| Cc1[nH]c2ccccc2c1C(=O)COC(=O)c1ccc2c(=O)n3c(nc2c1)CCC3 | 2.24 µM [falling, partial curve, poor fit] | – |
| COc1ccc(/C=C/C(=O)Nc2cccnc2Cl)cc1 | 14.1 µM [falling, partial curve, poor fit] | – |
| CCC(=O)Nc1ccc(C(=O)CSc2nnc(-c3cccnc3)o2)cc1 | 0.146 µM [rising, full curve, poor fit] | – |
| Cc1ccc(NS(=O)(=O)c2ccc(Cl)c(C(=O)Nc3ccccc3-c3nc4ccccc4[nH]3)c2)cc1C | 0.651 µM [rising, partial curve, poor fit] | – |

Reformatted in CSV form: 13 of the compounds above
Compound,AC50 [1],AC50 [2]
O=C(O)c1cc(NN=C2CCN(Cc3ccccc3)CC2)ccc1Cl,"11.2 µM [falling, partial curve]",–
O=C(Nc1nc2ccccc2[nH]1)Nc1ccccc1F,"10 µM [falling, partial curve]",–
Cc1ccc(NC(=O)Cc2cccs2)cc1Cl,"0.501 µM [rising, full curve, poor fit]",–
CC(C)(C)c1nnc(NC(=O)C2CCN(c3ncccn3)CC2)s1,"6.51 µM [falling, single point]",–
Cn1c(-c2ccsc2)c(-c2cccs2)c2cc(-c3ccc4cc[nH]c4c3)ccc21,"6.51 µM [falling, single point]",–
C/C(=N\NC(=O)c1ccc(O)cc1)c1cc2ccccc2o1,"11.2 µM [falling, partial curve, poor fit]",–
COc1ccc(OC)c2[nH]c(=O)c(CCNC(=O)c3cccs3)cc12,"1.41 µM [rising, full curve]",–
Nc1nc(-c2cc(Cl)cc(Cl)c2OC(F)F)cs1,"35.5 µM [rising, single point]",–
Cc1oc(-c2cccc(Cl)c2)nc1CN1CCCC(C(=O)NC(C)c2ccc3c(c2)OCCO3)C1 (configuration not stated),"2.06 µM [rising, full curve, poor fit]",–
CCOC(CCNC(=O)c1cn(-c2cccc(C)n2)cn1)OCC,"8.91 µM [falling, partial curve]",–
O=C(CSC(=S)N1CCCC1)N1CCN(S(=O)(=O)c2ccccc2F)CC1,"1.84 µM [rising, full curve]",–
O=C(CSC1=NS(=O)(=O)c2ccccc2N1)Nc1ccc(F)cc1,"29.1 µM [falling, single point]",–
Cc1ccc(NS(=O)(=O)c2ccc(Cl)c(C(=O)Nc3ccccc3-c3nc4ccccc4[nH]3)c2)cc1C,"0.651 µM [rising, partial curve, poor fit]",–
